A number of entries come with more than one value. The list is limited to them. The source may hold further records. Results that share an entry differ for a reason that is not stated; they may come from other doses, times, organisms or constructs than stated.
System: MDCK-II monolayers
Assay: In vitro MDCK-II permeability
Conditions: 2 µM, 150 min

SMILES: CCCCNC(=O)CN1C(=O)SC(=Cc2ccccc2)C1=O
- Efflux Ratio (B > A/A > B): less than 2.0 and 1.4

Reference: PMC5663708, “Novel Benzylidene Thiazolidinedione Derivatives as Partial PPARγ Agonists and their Antidiabetic Effects on Type 2 Diabetes” (Scientific Reports, 2017)
